Measurements published in PMC3751641, “Mena/VASP and αII-Spectrin complexes regulate cytoplasmic actin networks in cardiomyocytes and protect from conduction abnormalities and dilated cardiomyopathy” (Cell Communication and Signaling : CCS, 2013).

The chains behind the UniProt entries cited, without tags or fusion partners. Where a name states a change or a piece, a line headed by the entry shows the natural chain unless it says otherwise.
UniProt Q03173: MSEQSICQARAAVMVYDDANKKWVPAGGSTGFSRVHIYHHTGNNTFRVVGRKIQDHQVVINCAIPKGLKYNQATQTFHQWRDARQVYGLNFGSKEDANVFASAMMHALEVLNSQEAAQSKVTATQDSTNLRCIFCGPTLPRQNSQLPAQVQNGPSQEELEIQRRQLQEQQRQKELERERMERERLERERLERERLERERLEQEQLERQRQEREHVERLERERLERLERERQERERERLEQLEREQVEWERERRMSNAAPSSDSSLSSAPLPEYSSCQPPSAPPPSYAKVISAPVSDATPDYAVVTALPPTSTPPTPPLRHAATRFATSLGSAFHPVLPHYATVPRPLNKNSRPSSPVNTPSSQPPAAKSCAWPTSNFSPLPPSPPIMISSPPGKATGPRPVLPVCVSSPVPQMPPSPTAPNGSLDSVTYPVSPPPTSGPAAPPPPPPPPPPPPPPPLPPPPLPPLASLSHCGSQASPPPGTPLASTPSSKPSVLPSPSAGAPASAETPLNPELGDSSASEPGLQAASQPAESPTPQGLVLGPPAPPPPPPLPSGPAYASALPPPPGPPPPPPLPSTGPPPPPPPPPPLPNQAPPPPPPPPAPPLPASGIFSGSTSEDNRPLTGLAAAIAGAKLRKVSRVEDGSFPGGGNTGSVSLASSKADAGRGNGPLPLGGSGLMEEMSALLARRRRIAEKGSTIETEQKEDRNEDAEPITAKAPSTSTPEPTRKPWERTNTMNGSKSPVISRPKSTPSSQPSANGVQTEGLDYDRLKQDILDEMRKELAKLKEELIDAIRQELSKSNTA
UniProt P23242: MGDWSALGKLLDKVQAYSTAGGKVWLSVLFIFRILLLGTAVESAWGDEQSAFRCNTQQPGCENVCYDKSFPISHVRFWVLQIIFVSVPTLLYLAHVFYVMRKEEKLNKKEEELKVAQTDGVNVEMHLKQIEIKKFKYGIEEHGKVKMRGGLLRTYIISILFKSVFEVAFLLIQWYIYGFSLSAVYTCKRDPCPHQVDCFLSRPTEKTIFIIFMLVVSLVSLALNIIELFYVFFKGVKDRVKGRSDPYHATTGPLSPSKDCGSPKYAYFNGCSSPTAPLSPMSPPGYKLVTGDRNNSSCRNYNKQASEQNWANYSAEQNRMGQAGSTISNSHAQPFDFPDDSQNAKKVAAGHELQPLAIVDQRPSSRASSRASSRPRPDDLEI

Target: Mena (mammalian Enabled) (mouse (endogenous in mouse heart)) (UniProt Q03173)
Assay: co-IP; adult mouse heart lysate incubated with 5 μg purified anti-Mena, anti-αII-Spectrin or anti-SH3i antibodies, then protein A-sepharose; washed in lysis buffer; Western blot; GST-specific antibodies as control

- binding: binds
Substance: Connexin 43, endogenous in adult mouse heart (from UniProt P23242 1-382)

These are yes or no findings as the source states them, for the method shown. In cells and extracts the contact can be indirect. A result given as binding can be weak or reduced; the word gives no strength.
